For three molecules, binding results are on record in publication PMC6356446.

By UniProt entry, the sequences of proteins in these tests, tags left out. Residues count along the entry.
UniProt P21860, residues 20-1342: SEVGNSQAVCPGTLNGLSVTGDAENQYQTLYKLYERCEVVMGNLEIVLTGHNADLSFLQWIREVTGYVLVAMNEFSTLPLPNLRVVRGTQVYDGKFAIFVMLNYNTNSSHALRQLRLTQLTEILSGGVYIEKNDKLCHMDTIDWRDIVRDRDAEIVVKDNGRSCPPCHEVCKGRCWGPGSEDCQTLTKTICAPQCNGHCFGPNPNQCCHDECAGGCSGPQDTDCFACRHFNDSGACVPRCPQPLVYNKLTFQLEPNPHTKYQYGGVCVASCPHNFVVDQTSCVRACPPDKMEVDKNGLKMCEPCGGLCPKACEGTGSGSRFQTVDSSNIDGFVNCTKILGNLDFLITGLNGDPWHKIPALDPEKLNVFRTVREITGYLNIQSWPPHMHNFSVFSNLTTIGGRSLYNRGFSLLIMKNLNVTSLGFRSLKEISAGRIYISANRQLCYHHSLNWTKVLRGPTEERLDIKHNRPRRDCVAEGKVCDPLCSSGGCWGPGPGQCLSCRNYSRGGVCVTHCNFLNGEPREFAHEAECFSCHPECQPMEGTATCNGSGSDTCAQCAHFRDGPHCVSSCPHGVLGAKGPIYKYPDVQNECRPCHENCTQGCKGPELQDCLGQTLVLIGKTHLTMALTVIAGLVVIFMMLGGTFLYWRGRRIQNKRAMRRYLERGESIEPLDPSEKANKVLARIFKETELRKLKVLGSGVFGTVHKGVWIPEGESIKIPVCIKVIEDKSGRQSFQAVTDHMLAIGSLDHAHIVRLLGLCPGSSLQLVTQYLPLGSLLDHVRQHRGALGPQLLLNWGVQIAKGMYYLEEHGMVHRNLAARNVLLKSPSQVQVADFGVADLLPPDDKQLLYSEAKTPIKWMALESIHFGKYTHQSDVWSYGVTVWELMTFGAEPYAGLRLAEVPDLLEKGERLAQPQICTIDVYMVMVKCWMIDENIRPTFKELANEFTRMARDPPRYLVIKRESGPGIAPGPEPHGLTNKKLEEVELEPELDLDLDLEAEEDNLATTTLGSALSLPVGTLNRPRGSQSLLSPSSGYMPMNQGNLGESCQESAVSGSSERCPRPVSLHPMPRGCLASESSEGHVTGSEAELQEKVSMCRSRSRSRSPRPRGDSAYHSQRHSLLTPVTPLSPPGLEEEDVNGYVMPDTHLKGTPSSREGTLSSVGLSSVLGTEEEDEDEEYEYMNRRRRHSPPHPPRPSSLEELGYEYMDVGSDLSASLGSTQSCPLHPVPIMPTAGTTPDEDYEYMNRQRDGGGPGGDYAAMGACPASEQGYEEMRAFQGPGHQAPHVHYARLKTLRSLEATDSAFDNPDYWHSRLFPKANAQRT

These are yes or no findings as the source states them, for the method shown. For part of these data: In cells and extracts the contact can be indirect. Some entries that bind do so weakly or less than the wild type.

In assay [1] the target is c-Met (human (endogenous in HCC413)), P08581. Kind of assay: co-IP; HCC413 cells untreated or pre-incubated with mannosidase inhibitors (KIF 10 uM, SWN 5.8 uM), then LZ-8 for 30 min; IP of EGFR or c-Met, immunoblot of LZ-8; only the binder purified. Conditions: remark: other sources report otherwise. Background: A western blot detects proteins with antibodies after separation by electrophoresis.

For assay [2], the target named is HER3 (human (endogenous in HCC413)) (UniProt P21860). The experiment in a line: far-Western, overlay or dot blot; affinity blot: RTKs immunoprecipitated from HCC413 cells (untreated or 10 uM KIF for 24 h), probed with biotin-labeled LZ-8, avidin-HRP chemiluminescent detection; only the binder purified.
Assay [3] has as its target c-Met (human (endogenous in HCC413)), P08581. The description is as above. Conditions: remark: other sources report otherwise.

B1: Ling-Zhi-8, P14945 1-111 (natural protein)
chain: MSDTALIFRLAWDVKKLSFDYTPNWGRGNPNNFIDTVTFPKVLTDKAYTYRVAVSGRNLGVKPSYAVESDGSQKVNFLEYNSGYGIADTNTIQVFVVDPDTNNDFIIAQWN
modifications: here or on the partner: N-glycans (sites not given)
As for B1, the binding result in assay [1] is “binds”.

B2: biotin-labeled LZ-8 (protein, UniProt P14945 1-111)
chain: B1 chain
modifications: biotin (site not stated)
In the case of B2, the binding result in assay [2] is on record as “binds”.

B3: biotin-labeled LZ-8, P14945 1-111 (protein)
chain: B1 chain
modifications: here or on the partner: biotin (site not stated); N-glycans (sites not given)
With B3, the binding entry in assay [3] is “binds”.
